Measurements published in patent publication US20240270736A1, “MACROCYCLIC HETEROCYCLES AND USES THEREOF” (Kumquat Biosciences Inc., priority 2022, published 2024).
Some entries share one result that the patent states for a list of compounds. At least one compound was matched to its structure with a doubt left.

Legend:
Format in all cases: binding
KRAS G12D = biological target: T1, KRAS G12D (Homo sapiens, UniProt P01116, G12D); experiment: HTRF assay, interaction of KRAS G12D with SOS1; conditions: Ras::SOS1 interaction, read-out: Inhibition of KRAS G12D (IC50)
T1 construct: made in house; host or cells: E. coli, e.g. BL21 (DE3)
Source text: (§1) This assay can be also used to assess a selective inhibition or reduction of signaling output of a mutant Ras protein relative to a wildtype, or relative to a different mutant Ras protein. For example, the equilibrium interaction of wildtype Kras or K-Ras mutant (e.g., wildtype or a mutant thereof) with SOS1 (e.g., hSOS1) can be assessed as a proxy or an indication for a subject compound's ability to bind and inhibit Ras protein. The HTRF assay detects from (i) a fluorescence resonance energy transfer (FRET) donor (e.g., antiGST-Europium) that is bound to GST-tagged K-Ras mutant to (ii) a FRET acceptor (e.g., anti-6His-XL665) bound to a His-tagged hSOS1.
(§2) The assay buffer can contain ˜5 mM HEPES pH 7.4, ˜150 mM NaCl, ˜ 1 mM DTT, 0.05% BSA and 0.0025% (v/v) Igepal. […] A suitable amount of the protein construct will depend on the range of activity or range of IC50 values being detected or under investigation. […]
(§3) A fixed volume of DMSO with or without test compound is transferred into a 384-well plate. […] Upon incubation for about 10 minutes or longer, the fluorescence is measured with a M1000Pro plate reader (Tecan) using HTRF detection (excitation 337 nm, emission 1: 620 nm, emission 2: 665 nm). […] Signaling output measured in terms of IC50 values can be obtained and a ratio of IC50 against one mutant relative to another mutant can be calculated. […]

KRAS G12V = biological target: T2, KRAS G12V (Homo sapiens, UniProt P01116, G12V); experiment: HTRF assay, interaction of KRAS G12V with SOS1; conditions: Ras::SOS1 interaction, read-out: Inhibition of KRAS G12V (IC50)
T2 construct: made in house; host or cells: E. coli, e.g. BL21 (DE3)
Source text: as §1, §2, §3

wildtype KRAS = biological target: T3, wildtype KRAS (Homo sapiens, UniProt P01116); experiment: HTRF assay, interaction of wildtype KRAS with SOS1; conditions: Ras::SOS1 interaction, read-out: Inhibition of KRAS WT (IC50)
T3 construct: made in house; host or cells: E. coli, e.g. BL21 (DE3)
Source text: as §1, §2, §3

Measured: IC50

CNCC1CCC=CCCN2CCOc3c(Cl)c(-c4ccc(F)c5sc(N)c(C#N)c45)c(F)c4nc(nc2c34)O1 (stereo not drawn) [Compound 119, (E)-2-amino-4-(15-chloro-17-fluoro-4-((methylamino)methyl)-5,6,9,10,12,13-hexahydro-4H-2,18-(azeno)benzo[6,7][1,4]oxazepino[5,4-d][1]oxa[3,5]diazacyclododecin-16-yl)-7-fluorobenzo[b]thiophene-3-carbonitrile]
≤ 5 µM: all assays above

2-amino-4-((11R)-14-chloro-11-(difluoromethyl)- 4-((dimethylamino)methyl)-16-fluoro- 4,5,6,7,8,9,11,12-octahydro-2,17- (azeno)benzo[6,7][1,4]oxazepino[5,4- d][1]oxa[3,5]diazacycloundecin-15-yl)-7- fluorobenzo[b]thiophene-3-carbonitrile [Compound 134]
≤ 5 µM: all assays above
